From the supplement of paper PMC12889115 come the findings set out here.

SMILES strings stand for the structures. Some of the results follow. Values are raw readings; no control value is given beside them.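 First-pass screen: polymyxin B was added at a level that permeabilizes the Salmonella outer membrane while sparing the inner membrane. DMSO wells, with and without polymyxin B, defined maximum growth. Because plates differed from one another, each plate's data were ranked separately and the compounds with the lowest OD600 were carried forward as hits.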

The subject of this assay is Salmonella enterica serovar Typhimurium SL1344. As to the kind of experiment: bacterial growth OD600 after 18 h with compound and polymyxin B; higher = more bacterial growth (less inhibition). Conditions: 50 µM, Mueller-Hinton broth.

In the case of `O=C1N(c2ccccc2)C[C@@H]2C[C@@H](c3ccc(C#CCCO)cc3)N3CCC[C@@]123`, the “bacterial growth OD600” value (polymyxin B 0.75 µg/mL) came to 0.87. On to `O=C1CCC(CCC(=O)N2CCCC(OCc3ccccc3)C2)(Cc2cccs2)N1` (stereo unspecified), for which the “bacterial growth OD600” value (polymyxin B 0.75 µg/mL) was determined as 1.01. On to `O=C(NC1CC(=O)N(CCCc2ccccc2)C1)c1cscn1` (stereo unspecified), for which the “bacterial growth OD600” value (polymyxin B 1 µg/mL) was 0.919.

In the case of `Cc1nc2ccccc2n1Cc1cc(C(=O)N(C)CC2CCCN2C)no1` (stereo unspecified), the “bacterial growth OD600” value (polymyxin B 1 µg/mL) was determined as 1.1.

On to `CCOC(=O)C1(Cc2ccccc2)CCCN(Cc2ncc[nH]2)C1` (stereo unspecified), for which the “bacterial growth OD600” value (polymyxin B 1 µg/mL) is 1.24. With `O=C(CCC1(Cc2ccc(F)cc2)CCC(=O)N1)NCc1ccsc1` (stereo unspecified), the “bacterial growth OD600” value (polymyxin B 0.75 µg/mL) was found to be 0.814. As to `CN(CCc1ccccc1)C(=O)c1nc2sccn2c1CN1CCN(CC2CC2)CC1`, where the note is “polymyxin B 0.75 µg/mL”, the “bacterial growth OD600” value came out at 0.816. Take `CC(=O)c1ccc(C(=O)N2CCCC(CCC(=O)Nc3ccc(F)cc3C)C2)s1` (stereo unspecified): the “bacterial growth OD600” value (polymyxin B 1 µg/mL) amounted to 0.961. With `O=C(Nc1ccc(Oc2ccccc2)nc1)C1CCN(C(=O)[C@@H]2C[C@@H]3C=C[C@H]2C3)CC1`, under “polymyxin B 1 µg/mL”, the “bacterial growth OD600” value was 0.956. `C#CCN(CC=C)Cc1nc(-c2ccc(F)c(OC)c2)oc1C`: the “bacterial growth OD600” value (polymyxin B 1 µg/mL) came to 0.82.

As for `COC(=O)c1ccc(-c2noc(CN3CCC(C(O)Cc4ccccc4)CC3)n2)cc1` (stereo unspecified), the “bacterial growth OD600” value (polymyxin B 1 µg/mL) came to 0.801.

On to `CCC(C)C(=O)C(=O)NCC1Cc2cc(-c3ccnc(SC)n3)cc(Cl)c2O1` (stereo unspecified), for which the “bacterial growth OD600” value (polymyxin B 0.75 µg/mL) turned out to be 0.563. For the compound `COc1cc(OC)c(CN2CCCC(C(=O)c3cccc(Cl)c3)C2)c(OC)c1` (stereo unspecified), the “bacterial growth OD600” value (polymyxin B 1 µg/mL) was 0.002. As to `CC(=O)N1CCC(C(=O)N2CCCC(Nc3ccccc3)C2)CC1` (stereo unspecified), the “bacterial growth OD600” value (polymyxin B 1 µg/mL) stood at 0.899. On to `CC(=O)NCc1cccnc1N1CCN(c2ccccc2C)CC1`, for which the “bacterial growth OD600” value (polymyxin B 1 µg/mL) was determined as 0.664. For `COC(=O)c1cc(CNC(=O)Cc2cc(OC)ccc2OC)cc(NC(=O)Cc2ccccc2)c1`, the “bacterial growth OD600” value (polymyxin B 0.75 µg/mL) amounted to 0.912. As to `COc1ccc(CCN2CC(C(=O)NCc3cc(C)on3)CCC2=O)cc1` (stereo unspecified), the “bacterial growth OD600” value (polymyxin B 1 µg/mL) was found to be 0.867.

As to `CCOC(=O)C1(Cc2ccc(F)cc2)CCCN(C(=O)c2ccc(C)nc2O)C1` (stereo unspecified), where the note is “polymyxin B 0.75 µg/mL”, the “bacterial growth OD600” value was 0.885. Consider `COc1cccc(CCNC(=O)c2ccc(OC3CCN(C(=O)C4CC4)CC3)cc2)c1`, for which, for the setting “polymyxin B 1 µg/mL”, the “bacterial growth OD600” value came to 1.05. Turning to `Cc1oc(-c2ccccc2NC(=O)c2ccccn2)nc1CNC(=O)CCc1nc2ccccc2s1`, under “polymyxin B 0.75 µg/mL”, the “bacterial growth OD600” value amounted to 0.822. Regarding `CC(C)c1noc(-c2ccc(NCCN3CCOC3=O)nc2)n1`, the “bacterial growth OD600” value (polymyxin B 1 µg/mL) is 1.01.
